Assay results from patent publication US20170198014A1, “POLYPEPTIDES AND THEIR USE FOR TREATING INFLUENZA” ([…] ITS CENTER FOR COMMERCIALIZATION, priority 2014, published 2017).
These are yes or no findings as the source states them, for the method shown. Some results given as binding are weak or reduced against the parent protein; the word gives no strength. Tags and fused reporters may be left off the sequences shown.

Each binder was assayed against hemagglutinin H3 (A/Hong Kong/1/1968-H3N2) (influenza A virus A/Hong Kong/1/1968 (H3N2)) (UniProt Q91MA7) (assay: BLI (FIG. 5)).

Binder | binding
Hsc1-EA, monomeric version (designed binder) GIVNVPNCNTTKYQQLARTAVAIYNYHEQAHLTFVENLNCKEQGNYYYITLAATDDAGKKAIYEAKIGVVESAGWTGVEEFKLV | binds
Hsc1-3357EA, monomeric version (designed binder) GIVNVPNPNTTKYQQLARTAVAIYNYHEQAHLCFVENLNVKEQGNYYYITLAACDDAGKKAIYEAKIGVVESAGWTGVEEFKLV | binds
HAA.1 c fused to Hsc1-EA via a triLong linker, trimer (designed binder) MEEVVLITVPSEEVARTIAKALVEERLAACVNIVPGLTSIYRWQGEVVEDQELLLLVKTTTHAFPKLKERVKALHPYTVPEIVALPIAQGNQEYLDWLRENAGGGGSGGSGIVNVPNCNTTKYQQLARTAVAIYNYHEQAHLTFVENLNCKEQGNYYYITLAATDDAGKKAIYEAKIGVVESAGWTGVEEFKLV | binds
